# Source: patent US20200140851A1 (Scripps Research, published 2020)
# Chains of the proteins cited; added tags and fusions are not shown. Lines headed by an entry give the natural chain unless they say otherwise; changes in a name come on top.
# UniProt P08670: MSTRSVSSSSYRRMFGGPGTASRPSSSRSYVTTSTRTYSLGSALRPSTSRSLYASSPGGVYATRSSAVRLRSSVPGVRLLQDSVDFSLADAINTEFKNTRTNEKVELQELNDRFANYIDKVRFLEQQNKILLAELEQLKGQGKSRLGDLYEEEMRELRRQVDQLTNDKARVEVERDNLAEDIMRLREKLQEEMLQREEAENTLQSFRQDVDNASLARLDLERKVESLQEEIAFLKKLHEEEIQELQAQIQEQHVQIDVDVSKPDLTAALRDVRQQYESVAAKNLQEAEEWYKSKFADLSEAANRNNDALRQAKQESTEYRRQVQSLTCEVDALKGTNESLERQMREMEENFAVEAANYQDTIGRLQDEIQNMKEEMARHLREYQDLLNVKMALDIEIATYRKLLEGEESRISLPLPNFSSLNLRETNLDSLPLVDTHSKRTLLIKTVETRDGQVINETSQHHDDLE
# No constants are given. Whether binding was seen depends on the method and setting. Binding seen in cells or lysates may run through a third protein. Some entries that bind do so weakly or less than the wild type.
# B1: B1 antibody (Fc fusion)
# scFv: MAQVQLLESGGGLVQPGGSLTLACAASGFNFNNYNMNWVRQAPGRGLEWVAFISSAADTVHYADSVEGRFTISRDNAKNSLYLHMNSLRDEDTAVYYCARQLLYWGQGTLVTVSSGGGGGSQAVLTQPSSLSASPGASVSLTCTLRSGINVGAYRIYWYQQKPGSPPQFLLRYKSDSDKQQGSGVPSRFSGSRDASANAGILLISWLRSEDEADYYCAIWHSSAWVFGGGTQLTVLG
# notes: also called B1 Ab; B1Ab; not shown: Fc tag of the purified ScFv-Fc fusion protein
# Biological target: human vimentin (human) (UniProt P08670)
# Test: confocal immunofluorescence on human CD34+ cells; legend part A also gives the IP and nano-LC-MS/MS that identified human vimentin
binder,measurement,value
B1,binding,binds
